{
  "sequences": {"note": "Sequences of proteins named here, by UniProt entry; tags and fusion partners are left off.", "UniProt P11940": "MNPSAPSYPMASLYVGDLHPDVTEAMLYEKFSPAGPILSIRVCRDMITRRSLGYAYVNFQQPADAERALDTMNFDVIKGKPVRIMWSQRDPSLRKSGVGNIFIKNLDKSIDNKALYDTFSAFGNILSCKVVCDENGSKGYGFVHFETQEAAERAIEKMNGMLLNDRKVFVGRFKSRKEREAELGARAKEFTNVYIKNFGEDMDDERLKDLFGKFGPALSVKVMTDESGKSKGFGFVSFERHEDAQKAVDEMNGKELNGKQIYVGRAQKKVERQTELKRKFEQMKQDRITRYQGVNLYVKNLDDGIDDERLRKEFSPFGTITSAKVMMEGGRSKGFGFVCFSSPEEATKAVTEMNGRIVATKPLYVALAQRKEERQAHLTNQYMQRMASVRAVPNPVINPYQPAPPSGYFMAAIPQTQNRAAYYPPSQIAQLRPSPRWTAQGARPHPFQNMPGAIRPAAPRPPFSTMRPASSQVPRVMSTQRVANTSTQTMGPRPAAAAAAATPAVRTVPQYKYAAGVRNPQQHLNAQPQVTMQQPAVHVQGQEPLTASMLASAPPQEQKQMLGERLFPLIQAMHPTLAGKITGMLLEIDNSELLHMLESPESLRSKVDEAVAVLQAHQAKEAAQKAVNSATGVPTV", "UniProt O00567": "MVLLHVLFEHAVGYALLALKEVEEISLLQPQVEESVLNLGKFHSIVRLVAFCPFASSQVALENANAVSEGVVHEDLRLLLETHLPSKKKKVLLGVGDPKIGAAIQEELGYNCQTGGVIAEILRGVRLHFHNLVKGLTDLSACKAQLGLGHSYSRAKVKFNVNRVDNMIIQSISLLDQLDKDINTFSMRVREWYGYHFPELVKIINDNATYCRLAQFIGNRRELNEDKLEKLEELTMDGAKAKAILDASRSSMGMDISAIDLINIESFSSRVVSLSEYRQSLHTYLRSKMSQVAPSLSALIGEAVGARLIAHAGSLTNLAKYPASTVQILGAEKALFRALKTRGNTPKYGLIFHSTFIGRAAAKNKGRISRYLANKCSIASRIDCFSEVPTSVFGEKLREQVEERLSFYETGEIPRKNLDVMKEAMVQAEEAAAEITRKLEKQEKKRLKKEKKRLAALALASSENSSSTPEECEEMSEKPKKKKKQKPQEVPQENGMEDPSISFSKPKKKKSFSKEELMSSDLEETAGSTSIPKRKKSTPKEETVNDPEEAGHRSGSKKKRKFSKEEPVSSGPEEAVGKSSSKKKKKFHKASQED", "UniProt P55884": "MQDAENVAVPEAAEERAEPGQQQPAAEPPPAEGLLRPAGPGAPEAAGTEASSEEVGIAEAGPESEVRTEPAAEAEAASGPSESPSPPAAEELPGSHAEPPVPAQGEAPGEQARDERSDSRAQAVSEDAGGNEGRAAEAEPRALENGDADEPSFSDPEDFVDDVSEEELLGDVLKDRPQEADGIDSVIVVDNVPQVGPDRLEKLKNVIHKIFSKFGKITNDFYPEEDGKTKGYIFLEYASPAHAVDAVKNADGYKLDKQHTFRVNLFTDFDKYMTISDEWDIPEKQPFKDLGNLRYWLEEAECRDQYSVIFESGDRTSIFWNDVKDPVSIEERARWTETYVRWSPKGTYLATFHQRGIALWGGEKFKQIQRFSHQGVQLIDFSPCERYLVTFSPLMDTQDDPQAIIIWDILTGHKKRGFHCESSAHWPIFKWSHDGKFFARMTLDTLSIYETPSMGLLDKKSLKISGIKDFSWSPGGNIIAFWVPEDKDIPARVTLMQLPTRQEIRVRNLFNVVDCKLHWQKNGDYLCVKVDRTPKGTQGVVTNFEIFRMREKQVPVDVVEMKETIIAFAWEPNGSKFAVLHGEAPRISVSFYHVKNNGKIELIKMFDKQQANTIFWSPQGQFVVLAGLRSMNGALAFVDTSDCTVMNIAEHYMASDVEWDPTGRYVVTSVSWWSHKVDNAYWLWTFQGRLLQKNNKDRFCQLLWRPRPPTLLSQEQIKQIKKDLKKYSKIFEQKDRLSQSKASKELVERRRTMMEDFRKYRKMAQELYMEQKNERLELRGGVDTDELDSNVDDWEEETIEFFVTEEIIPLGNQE", "UniProt O00303": "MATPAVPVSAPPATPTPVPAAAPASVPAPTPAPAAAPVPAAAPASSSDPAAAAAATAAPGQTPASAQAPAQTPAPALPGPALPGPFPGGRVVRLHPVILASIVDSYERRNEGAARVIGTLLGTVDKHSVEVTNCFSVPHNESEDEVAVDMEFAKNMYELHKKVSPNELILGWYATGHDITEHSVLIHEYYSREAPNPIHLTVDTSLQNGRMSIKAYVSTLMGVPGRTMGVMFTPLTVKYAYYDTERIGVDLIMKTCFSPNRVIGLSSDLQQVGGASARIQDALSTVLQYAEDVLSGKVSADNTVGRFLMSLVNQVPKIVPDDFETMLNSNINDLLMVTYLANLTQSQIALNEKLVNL", "UniProt O60506": "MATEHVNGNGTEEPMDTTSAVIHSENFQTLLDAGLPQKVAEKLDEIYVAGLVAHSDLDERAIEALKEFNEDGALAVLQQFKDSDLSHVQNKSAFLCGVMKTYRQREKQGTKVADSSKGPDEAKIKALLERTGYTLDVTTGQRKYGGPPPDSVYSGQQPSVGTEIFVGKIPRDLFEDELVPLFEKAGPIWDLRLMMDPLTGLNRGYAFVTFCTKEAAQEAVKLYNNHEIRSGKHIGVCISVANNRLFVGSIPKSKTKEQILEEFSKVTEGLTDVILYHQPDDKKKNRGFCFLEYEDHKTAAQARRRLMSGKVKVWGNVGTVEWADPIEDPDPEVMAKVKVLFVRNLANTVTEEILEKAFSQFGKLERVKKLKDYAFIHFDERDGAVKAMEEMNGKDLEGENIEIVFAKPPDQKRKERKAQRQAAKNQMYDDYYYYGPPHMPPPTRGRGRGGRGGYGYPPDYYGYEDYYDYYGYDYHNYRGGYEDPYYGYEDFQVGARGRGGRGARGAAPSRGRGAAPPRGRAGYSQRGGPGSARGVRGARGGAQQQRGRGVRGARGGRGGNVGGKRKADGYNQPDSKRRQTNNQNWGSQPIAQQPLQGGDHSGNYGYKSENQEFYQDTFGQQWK", "UniProt P50750": "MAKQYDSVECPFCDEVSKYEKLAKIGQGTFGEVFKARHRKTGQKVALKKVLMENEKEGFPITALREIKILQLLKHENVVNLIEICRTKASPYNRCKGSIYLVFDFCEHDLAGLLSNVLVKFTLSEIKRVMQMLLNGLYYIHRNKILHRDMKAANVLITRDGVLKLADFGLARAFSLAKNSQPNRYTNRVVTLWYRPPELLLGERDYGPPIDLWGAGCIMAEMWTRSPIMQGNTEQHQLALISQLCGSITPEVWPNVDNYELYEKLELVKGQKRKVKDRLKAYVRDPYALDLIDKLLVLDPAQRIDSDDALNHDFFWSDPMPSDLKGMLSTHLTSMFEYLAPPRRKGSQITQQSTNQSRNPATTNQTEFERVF"},
  "source": "paper PMC9481463",
  "note": "These are yes or no findings as the source states them, for the method shown. In cells and extracts the contact can be indirect. Here binding means that the protein was enriched with, or labelled near, the bait; the list need not be complete.",
  "data": [
    {"target": "T1, purine-rich element binding protein alpha (PURα) (human (endogenous in KYSE510)) (UniProt Q00577)", "T1 sequence": "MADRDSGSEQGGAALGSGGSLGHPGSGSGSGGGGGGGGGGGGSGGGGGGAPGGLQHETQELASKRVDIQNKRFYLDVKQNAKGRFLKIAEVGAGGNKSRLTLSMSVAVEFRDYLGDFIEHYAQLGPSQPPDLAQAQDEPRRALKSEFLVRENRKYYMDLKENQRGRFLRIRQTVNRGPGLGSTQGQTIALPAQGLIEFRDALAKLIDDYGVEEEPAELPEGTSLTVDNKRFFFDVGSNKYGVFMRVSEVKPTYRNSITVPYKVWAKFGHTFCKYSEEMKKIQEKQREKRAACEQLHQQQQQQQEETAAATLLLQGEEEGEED", "assay": "affinity purification with mass spectrometry; whole-cell extracts of KYSE510 cells immunoprecipitated with anti-PURα antibody or rabbit IgG on magnetic beads; on-bead trypsin; label-free quantification (LFQ) LC-MS/MS; criteria unique peptides ≥1 and LFQ intensity ratio ≥1.8", "values": [
      {"substance": "PABPC1 (from UniProt P11940 1-636)", "binding": "binds"},
      {"substance": "NOP56 (from UniProt O00567 1-594)", "binding": "binds"},
      {"substance": "EIF3B (from UniProt P55884 1-814)", "binding": "binds"},
      {"substance": "EIF3F (from UniProt O00303 1-357)", "binding": "binds"},
      {"substance": "SYNCRIP (from UniProt O60506 1-623)", "binding": "binds"},
      {"substance": "CDK9 (from UniProt P50750 1-372)", "binding": "binds"}
    ]}
  ]
}
